The source of these data is PMC3764193.

For at least one entry, the source does not settle the construct or the ends of the probe. At least one verdict was read from the data and is not stated in words by the source. Protein sequences can lack the tags named with them.

This data set has as its target T1, recombinant (His)6-Bwc2 (Cryptococcus neoformans var. neoformans JEC21) (UniProt Q5EGQ1).
T1 sequence (looked up): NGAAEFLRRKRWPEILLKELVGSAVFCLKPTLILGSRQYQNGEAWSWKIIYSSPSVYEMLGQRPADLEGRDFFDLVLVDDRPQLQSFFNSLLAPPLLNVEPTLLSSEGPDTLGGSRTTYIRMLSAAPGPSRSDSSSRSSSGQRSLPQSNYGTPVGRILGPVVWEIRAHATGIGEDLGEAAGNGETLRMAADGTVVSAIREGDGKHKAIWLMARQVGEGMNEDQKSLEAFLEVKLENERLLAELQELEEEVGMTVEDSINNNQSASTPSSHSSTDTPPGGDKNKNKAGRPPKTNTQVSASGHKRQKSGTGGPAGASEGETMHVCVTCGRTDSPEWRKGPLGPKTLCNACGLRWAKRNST
Kind of data set: competition with a labelled probe. The following applies: cold P1 600 and 900 ng against labelled P1, 50 ug Bwc2; 1X EMSA buffer (from 5X: 20% w/v glycerol, 5 mM MgCl2, 250 mM NaCl, 2.5 mM EDTA pH 8, 10 mM DTT, +/-12 uM ZnSO4) + 1X phosphate buffer, 20 ul; recombinant protein; residues 26-383; label: 32P (5', T4 PNK); probe letters rebuilt from the primers and the genome. Background: A gel shift assay detects complexes by their altered migration in electrophoresis.

In the case of “GTAGTCACCAGTCATTCAGTTACTCTGTTATGACGTGACGTCGTTACTCTCGATCTTCATCTCGATCTCCACCTTGCAAGCTTTTCAGGCTTTTTACTCATCGTTCACTATATAATACGATACCACACTTGACATTTCTTCGGTATGTATAAAACGCAGTCGCGAGTACTTCCTTCTGCTTTTGCAACAAACACGTCTGCATTTGTTGCCAAGTATTTATATCAGCATTAAGTACATGAGGTTC (double strand) [P1 (UVE1 promoter)]”, the binding result is reported as “binds”.
